For some assays here: The same purity stands for every peptide and may come from a single statement.
test: peptide synthesis; settings: coupling step

Substance	step yield [%]
BOC Asp-(β-OBz)Sub Lys-(ε-Z)-COOBz	73
BOC-Glu-(γ-OBz) Asp-(β-OBz) Sub-Lys-(ε-Z)COOBz	68
pGlu-(γ-OBz) Glu-(β-OBz) Asp-Sub-(ε-Z) Lys-COOBz	69

test: general procedure: Boc solid-phase peptide synthesis; Boc-Lys(Cl-Z)-PAM resin; BHA, MBHA, chloromethyl, hydroxymethyl resins; DCC/HOBt; settings: whole synthesis, HPLC, scale of the general procedure 0.5 g resin (0.63 mmol/g)

Substance	final HPLC purity [%]
((d)-pGlu-Glu-Asp)2 -Sub-(Lys)2	>95
(Pic-Glu-Asp)2 -Sub-(Lys)2	>95
(Pic-Ser-Asp)2 -Adp-(Lys)2	>95
(Pic-Ser-Asp)2 -Adp-(Lys-CONH2)2	>95
(pGlu-(d)-Glu-Asp)2 -Sub-(Lys)2	>95
(pGlu-Asp-Asp)2 -Sub-(Lys)2	>95
(pGlu-Glu-Asp)2 -Adp-(Tyr-Lys)2	>95
(pGlu-Glu-Glu)2 -Sub-(Lys)2	>95
(pGlu-Glu-Lys)2 -Sub-(Asp)2	>95
(pGlu-Ser-Asp)2 -Sub-(Lys)2	>95

same assay, conditions: whole synthesis, scale of the general procedure 0.5 g resin (0.63 mmol/g)

Substance	difficulty met
(pGlu-Glu-Asp)2 -Adp-(Tyr-Lys)2	After 72 hours (the reaction was still not complete)

From patent US5776900A (SmithKline Beecham Corporation, priority 1995, dated 1998)
